This note sets out measurements from publication PMC8440931, “Physical and Functional Interaction of Mitochondrial Single-Stranded DNA-Binding Protein and the Catalytic Subunit of DNA Polymerase Gamma” (Frontiers in Genetics, 2021).

Protein sequences, listed by entry. Tags and fused reporters are not part of them. Residues count along the entry.
UniProt P02769, residues 25-607: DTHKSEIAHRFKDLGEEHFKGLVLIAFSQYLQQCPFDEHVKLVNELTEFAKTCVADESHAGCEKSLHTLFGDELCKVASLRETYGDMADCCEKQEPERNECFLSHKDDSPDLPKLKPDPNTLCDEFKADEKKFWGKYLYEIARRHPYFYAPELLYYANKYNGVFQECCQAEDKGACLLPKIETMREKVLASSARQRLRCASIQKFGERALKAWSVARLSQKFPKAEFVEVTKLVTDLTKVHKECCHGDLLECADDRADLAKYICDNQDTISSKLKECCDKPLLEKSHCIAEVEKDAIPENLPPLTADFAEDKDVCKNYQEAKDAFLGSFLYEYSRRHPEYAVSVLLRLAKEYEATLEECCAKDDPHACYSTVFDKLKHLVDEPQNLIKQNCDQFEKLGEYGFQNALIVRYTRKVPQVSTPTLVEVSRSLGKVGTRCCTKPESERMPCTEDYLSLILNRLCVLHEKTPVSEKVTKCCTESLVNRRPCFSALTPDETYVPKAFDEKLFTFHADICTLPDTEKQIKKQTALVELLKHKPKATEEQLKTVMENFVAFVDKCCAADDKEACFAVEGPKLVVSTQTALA

The target in assay [1] is T1, biotinylated mitochondrial single-stranded DNA-binding protein (BTN-mtSSB), wild type (human) (UniProt Q04837).
T1 sequence (chain, biotin (conjugated; site not stated)): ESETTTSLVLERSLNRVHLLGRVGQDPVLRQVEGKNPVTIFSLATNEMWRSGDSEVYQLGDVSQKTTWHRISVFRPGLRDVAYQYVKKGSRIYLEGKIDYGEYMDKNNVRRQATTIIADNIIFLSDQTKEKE
Description: BLI; BTN-mtSSB or BTN-mtSSB_(l2.3) (600 nM) saturated on streptavidin sensors; Pol γα as analyte at increasing concentrations; Ac buffer: 50 mM Tris-HCl pH 8.0, 10 mM KCl, 4 mM MgCl2, 0.4 mg/ml BSA, 10 mM DTT; 30°C, 1,000 rpm; 1:1 interaction model; both purified.

The target in assay [2] is T1, biotinylated mitochondrial single-stranded DNA-binding protein (BTN-mtSSB), wild type (human). Briefly: BLI; BTN-mtSSB on streptavidin sensors; 120 nM Pol γα alone, replaced by, or preincubated with 120 nM Pol γβ2; both purified.
The target is the same in assay [3]. Briefly: BLI; BTN-mtSSB on streptavidin sensors; association response of 120 nM Pol γα in the presence of increasing KCl concentrations; both purified. Background: Biolayer interferometry detects binding as a change in optical thickness at a sensor tip.
The target is the same in assay [4]. Description: BLI; BTN-mtSSB sensors first incubated in solutions with increments of 43-nt-long ssDNA oligomers, then placed into the Pol γα solution; both purified.

These are yes or no findings as the source states them, for the method shown. Some binding calls cover weakened binding; strength is not graded here.

For the molecule “bovine serum albumin (BSA) (from UniProt P02769 25-607)”, the binding result in assay [1] is listed as “no binding (tested: 0.4mg/ml)”.

B1: catalytic subunit of mitochondrial DNA polymerase gamma (Pol γα) (enzyme, human, UniProt P54098 1-1239, looked up)
chain: MSRLLWRKVAGATVGPGPVPAPGRWVSSSVPASDPSDGQRRRQQQQQQQQQQQQQPQQPQVLSSEGGQLRHNPLDIQMLSRGLHEQIFGQGGEMPGEAAVRRSVEHLQKHGLWGQPAVPLPDVELRLPPLYGDNLDQHFRLLAQKQSLPYLEAANLLLQAQLPPKPPAWAWAEGWTRYGPEGEAVPVAIPEERALVFDVEVCLAEGTCPTLAVAISPSAWYSWCSQRLVEERYSWTSQLSPADLIPLEVPTGASSPTQRDWQEQLVVGHNVSFDRAHIREQYLIQGSRMRFLDTMSMHMAISGLSSFQRSLWIAAKQGKHKVQPPTKQGQKSQRKARRGPAISSWDWLDISSVNSLAEVHRLYVGGPPLEKEPRELFVKGTMKDIRENFQDLMQYCAQDVWATHEVFQQQLPLFLERCPHPVTLAGMLEMGVSYLPVNQNWERYLAEAQGTYEELQREMKKSLMDLANDACQLLSGERYKEDPWLWDLEWDLQEFKQKKAKKVKKEPATASKLPIEGAGAPGDPMDQEDLGPCSEEEEFQQDVMARACLQKLKGTTELLPKRPQHLPGHPGWYRKLCPRLDDPAWTPGPSLLSLQMRVTPKLMALTWDGFPLHYSERHGWGYLVPGRRDNLAKLPTGTTLESAGVVCPYRAIESLYRKHCLEQGKQQLMPQEAGLAEEFLLTDNSAIWQTVEELDYLEVEAEAKMENLRAAVPGQPLALTARGGPKDTQPSYHHGNGPYNDVDIPGCWFFKLPHKDGNSCNVGSPFAKDFLPKMEDGTLQAGPGGASGPRALEINKMISFWRNAHKRISSQMVVWLPRSALPRAVIRHPDYDEEGLYGAILPQVVTAGTITRRAVEPTWLTASNARPDRVGSELKAMVQAPPGYTLVGADVDSQELWIAAVLGDAHFAGMHGCTAFGWMTLQGRKSRGTDLHSKTATTVGISREHAKIFNYGRIYGAGQPFAERLLMQFNHRLTQQEAAEKAQQMYAATKGLRWYRLSDEGEWLVRELNLPVDRTEGGWISLQDLRKVQRETARKSQWKKWEVVAERAWKGGTESEMFNKLESIATSDIPRTPVLGCCISRALEPSAVQEEFMTSRVNWVVQSSAVDYLHLMLVAMKWLFEEFAIDGRFCISIHDEVRYLVREEDRYRAALALQITNLLTRCMFAYKLGLNDLPQSVAFFSAVDIDRCLRKEVTMDCKTPSNPTGMERRYGIPQGEALDIYQIIELTKGSLEKRSQPGP
Turning to B1, the binding result in assay [2] is recorded as “binds”; in assay [3] it was “no binding (condition: increasing KCl concentrations)”; in assay [4], “binds”.
